# Reference: PMC12638999
# The chains behind the UniProt entries cited, without tags or fusion partners.
# UniProt P06733: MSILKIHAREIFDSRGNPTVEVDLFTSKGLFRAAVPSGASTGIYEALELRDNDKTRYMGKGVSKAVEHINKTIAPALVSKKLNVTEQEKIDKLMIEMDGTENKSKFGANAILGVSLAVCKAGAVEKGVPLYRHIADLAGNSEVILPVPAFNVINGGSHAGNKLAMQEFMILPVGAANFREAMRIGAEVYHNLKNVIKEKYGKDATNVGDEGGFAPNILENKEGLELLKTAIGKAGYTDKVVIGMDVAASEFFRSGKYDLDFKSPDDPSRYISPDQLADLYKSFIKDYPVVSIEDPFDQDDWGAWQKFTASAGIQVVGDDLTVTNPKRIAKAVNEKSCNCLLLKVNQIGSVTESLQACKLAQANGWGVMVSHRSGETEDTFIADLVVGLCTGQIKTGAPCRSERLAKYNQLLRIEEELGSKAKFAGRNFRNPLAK
# These are yes or no findings as the source states them, for the method shown. Binding seen in cells or lysates may run through a third protein. These calls come from enrichment with a bait or labelling near it, and not all partners need be listed. Tags and fused reporters may be left off the sequences shown.
# Target: T1, Flag-UCHL3 expressed in HGC-27 cells (UniProt P15374)
# T1 sequence: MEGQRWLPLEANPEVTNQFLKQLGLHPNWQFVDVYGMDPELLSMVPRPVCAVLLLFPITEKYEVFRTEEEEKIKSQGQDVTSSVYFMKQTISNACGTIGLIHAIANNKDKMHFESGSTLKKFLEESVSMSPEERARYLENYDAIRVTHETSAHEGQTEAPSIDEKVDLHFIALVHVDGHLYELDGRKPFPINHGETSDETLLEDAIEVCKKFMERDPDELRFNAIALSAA
# Experiment: affinity purification with mass spectrometry; Flag immunoprecipitation from HGC-27 cells transfected with Flag-UCHL3 or empty vector; SDS-PAGE, silver stain; mass spectrometry
substance,measurement,value
"ENO1, endogenous in HGC-27 cells (from UniProt P06733 1-434)",binding,binds
